Construct, isoform or probe ends are uncertain for at least one entry.
Tested on: Complement C1q (Homo sapiens)
Experiment: SELEX
Conditions: 2'-F C and U; MgPBS, 37 C; cloned from evolved pool; purified native protein; protein details: Quidel

Selection result, selected:
CGGAGGACGAUGCGGGCAAACUUUUCCUUUUCCCUUUAUCUUCCUUGCCCUCAGACGACUCGCCCGA [c1qrd17-42c]
GGAGGACGAUGCGGAGCGAAAGUGCGAGUGAUUGACCAGGUGCUCAGACGACUCGCCCGA [C1q4c]
GGAGGACGAUGCGGAUCCGCAAACCGACAGCUCGAGUUCCGCCUCAGACGACUCGCCCGA [C1q17c]
GGAGGACGAUGCGGAUGAGGAGGAAGAGUCUGAGGUGCUGGGGUCAGACGACUCGCCCGA [C1q7c]
GGAGGACGAUGCGGAUGAUGACUGAACGUGCGACUCGACCUGGCCAGACGACUCGCCCGA [C1ql6c]
GGAGGACGAUGCGGGAACCAAAUCGUCGAUCUUUCCACCGCUCGUCAGACGACUCGCCCGA [C1q9c]
GGAGGACGAUGCGGGGUUCCUCAAUGACGAUCUCCAUUCCGCUCGUCAGACGACUCGCCCAG [C1q10c]
GGAGGACGAUGCGGGUCGACAUUGAAGCUGCUCUGCCUUGAUCCUCAGACGACUCGCCCGA [Clq20c]
GGAGGACGAUGCGGUUCCAAAUCGUCUAAGCAUCGCUCGCUCGUCAGACGACUCGCCCAG [C1q14c]
GGGAGGACGAUGCGGAGCACAAUUUUUUCCUUUUCUUUUCGUCCACGUGCUCAGACGACUCGCCCGA [15.C1Q.157c]
GGGAGGACGAUGCGGAGCGUGAGAACAGUUGCGAGAUUGCCUGGUCAGACGACUCGCCCGA [c1qrd17-52c]
GGGAGGACGAUGCGGAGCUGAAAGCGAAGUGCGAGGUGUUUGGUCCAGACGACUCGCCCGA [06.C1Q.143c]
GGGAGGACGAUGCGGAGCUGAUGAAGAUGAUCUCUGACCCCUCAGACGACUCGCCCGA [44c1qb6oc]
GGGAGGACGAUGCGGAGGAGAGUGUGGUGAGGGUCGUUUUGAGGGUCAGACGACUCGCCCGA [C111c]
GGGAGGACGAUGCGGAGGAGCUGAUGAAGAUGAUCUCUGACCCCUCAGACGACUCGCCCGA [44c1Qb60c]
GGGAGGACGAUGCGGAGUUCCCAGCCGCCUUGAUUUCUCCGUGGUCAGACGACUCGCCCGA [24c1qb51c]
GGGAGGACGAUGCGGAUAAGUGCGAGUGUAUGAGGUGCGUGUGGUCAGACGACUCGCCCGA [31c1qb16c]
GGGAGGACGAUGCGGAUCCGAAUCUUCCUUACACGUCCUGCUCGUCAGACGACUCGCCCGA [c1qrd17-61c]
GGGAGGACGAUGCGGAUCUGAGGAGCUCUUCGUCGUGCUGAGGGUCAGACGACUCGCCCGA [28c1Qb20c]
GGGAGGACGAUGCGGAUGGUACUUUAGUCUUCCUUGAUUCCGCCUCAGACGACUCGCCCGA [34c1qb27c]
GGGAGGACGAUGCGGAUUUCGGUCGACUAAAUAGGGGUGGCUCGUCAGACGACUCGCCCGA [C1Q-A22'C]
GGGAGGACGAUGCGGCAAGAGGUCAGACGACUGCCCCGAGUCCUCCCCCGGUCAGACGACUCGCCCGA [C122c]
GGGAGGACGAUGCGGCAGUGAAAGGCGAGUUUUCUCCUCUCCCUCAGACGACUCGCCCGA [C115c]
GGGAGGACGAUGCGGCAUAGUCCGGAUACUAGUCACCAGCCUCGUAGACGACUCGCCCGA [46C1Qb64c]
GGGAGGACGAUGCGGCAUCGUAAACAAUUUGUUCCAUCUCCGCCUCAGACGACUCGCCCGA [C1Q-A4'C]
GGGAGGACGAUGCGGCAUCGUUCAGGAGAAUCCACUUCGCCUCGUCAGACGACUCGCCCGA [09.C1Q.149c]
GGGAGGACGAUGCGGCAUCUUCCUUGUUCUUCCAACCGUGCUCCUCAGACGACUCGCCCGA [04.C1Q.138c]
GGGAGGACGAUGCGGCAUUGUCCAAGUUUAGCUGUCCGUGCUCGUCAGACGACUCGCCCGA [c1qrd17-64c]
GGGAGGACGAUGCGGCCGUCUCGAUCCUUCUAUGCCUUCGCUCGUCAGACGACUCGCCCGA [C1q6 c]
GGGAGGACGAUGCGGCUCAACUCUCCCACAGACGACUCGCCCGGGCCUCCUCAGACGACUCGCCCGA [c1qrd17-63c]
GGGAGGACGAUGCGGGAAGUGGAAGGGUAGUUGUGUGACCUCAGACGACUCGCCCGA [C119c]
GGGAGGACGAUGCGGGACCACCUCGAUCCUCAGCGCCAUUGCCCUCAGACGACUCGCCCGA [C1Q-A10'C]
GGGAGGACGAUGCGGGACUCCUCGACCGACUCGACCGGCUCGUCAGACGACUCGCCGA [c1qrd17-47c]
GGGAGGACGAUGCGGGGCCGACGAUUCACCAAUGUUCUCUCUGGUCAGACGACUCGCCCGA [30c1Q24c (GGCC)]
GGGAGGACGAUGCGGUCCAAUUCGUUCUCAUGCCUUUCCGCUCGUCAGACGACUCGCCCGA [08.C1Q.147c]
GGGAGGACGAUGCGGUCCACAUCGAAUUUUCUGUCCGUUCGUCAGACGACUCGCCCGA [26c1Qb4c]
GGGAGGACGAUGCGGUCCGCAAGUUUAGCACUCACUGCCUCGUCAGACGACUCGCCCGA [11.C1Q.152c]
GGGAGGACGAUGCGGUCGAGCUGAGAGGGGCUACUUGUUCUGGUCACAGACGACUCGCCCGA [33c1Q26c]
GGGAGGACGAUGCGGUCGAUGUUCUUCCUCACCACUGCUCGUCGCCUCAGACGACUCGCCCGA [C1B115c]
GGGAGGACGAUGCGGUGGAAGCGAAUGGGCUAGGGUGGGCUGACCUCCAGACGACUCGCCCGA [01.C1Q.135c]
GGGAGGACGAUGCGGUGGACUUCUUUUCCUCUUCCUCCUUCCGCCGGUCAGACGACUCGCCCGA [47c1qb65c]
GGGAGGACGAUGCGGUUCCACAUCGAAUUUUCUGUCCGUGUCGUCAGACGACUCGCCCGA [c1q-a6C]
GGGAGGACGAUGCGGUUCCACAUCGCAAUUUUCUGUCCGUGCUCGUCAGACGACUCGCCCGA [c1qrd17-53c]
GGGAGGACGAUGCGGUUCCGAAGUUCUUCCCCCGAGCCUUCCCCCUCCAGACGACUCGCCCGA [05.C1Q.142c]
GGGAGGACGAUGCGGUUCCGACAUCGAUGUUGCUCUUCGCCUCGUCAGACGACUCGCCCGA [c1qrd17-56c]
GGGAGGACGAUGCGGUUCCGACGAUUCUCCAAUCUUCUCUCUGGUCAGACGACUCGCCCGA [38c1qb45c]
GGGAGGACGAUGCGGUUCCGACGAUUCUCCAAUGUUCUCUCUGGUCAGACGACUCGCCCGA [30c1q24c (UUCC)]
GGGAGGACGAUGCGGUUCCGAUCGACUCCACAUACAUCUGCUCGUCAGACGACUCGCCCGA [C1B114c]
GGGAGGACGAUGCGGUUCCGCAAGUUUAGACACUCACUGCCUCGUCAGACGACUCGCCCGA [10.C1Q151c]
GGGAGGACGAUGCGGUUGAGUGGACAGUGCGAUUCGUUUUGGGGUCAGACGACUCGCCCGA [10.C1B.134c]

Same assay, conditions: 2'-F C and U; selected sequence, ranked at 0.1 and 0.5 nM C1q; purified native protein; protein details: Quidel

Selection result, selected:
GGAGGACGAUGCGGAACACGGAAGACAGUGCGACUCGAUCUGGUCAGACGACUCGCCCGA [C1q5 c]
GGAGGACGAUGCGGAACCAAAUCGUCGAUCUUUCCACCGCUCGUCAGACGACUCGCCCGA [C1q11c]
GGGAGGACGAUGCGGAAACCAAAUCGUCGAUCUUUCCACCGUCGUCAGACGACUCGCCCGA [C1B100]
GGGAGGACGAUGCGGAAAGUGGAAGUGAAUGGCCGACUUGUCUGGUCAGACGACUCGCCCGA [c1qrd17-33c]
GGGAGGACGAUGCGGAACAAGGACAAAAGUGCGAUUCUGUCUGGCAGACGACUCGCCCG [32.C1B76c]
GGGAGGACGAUGCGGAACACGAAACGGAGGUUGACUCGAUCUGGCCAGACGACUCGCCCGA [c1q-a8c]
GGGAGGACGAUGCGGAACAGACGACUCGCGCAACUACUCUGACGUCAGACGACUCGCCCGA [c110c]
GGGAGGACGAUGCGGAACAGGUAGUUGGGUGACUCUGUGUGACCUCAGACGACUCGCCCGA [C1B121c]
GGGAGGACGAUGCGGAACCCAAUCGUCUAAUUCGCUGCUCAUCGUCAGACGACUCGCCCGA [C1Q-A5'c]
GGGAGGACGAUGCGGAACCCAAUCGUCUAAUUCGCUGCUCAUCGUCAGACGACUCGCCCGA [C1Q-A24'c]
GGGAGGACGAUGCGGAACCGCUAUUGAAUGUCACUGCUUCGUGCUCAGACGACUCGCCCGA [C15c]
GGGAGGACGAUGCGGAACUCAAUGGGCCUACUUUUCCGUGGUCCUCAGACGACUCGCCCGA [C121c]
GGGAGGACGAUGCGGAAGCGGUGAGUCGUGGCUUUCUCCUCGAUCCUCGUCAGACGACUCGCCCGA [c1q-a2C]
GGGAGGACGAUGCGGAAGGAUGACGAGGUGGUUGGGGUUUGUGCUCAGACGACUCGCCCGA [c1q-a12C]
GGGAGGACGAUGCGGACAAGACGAGAACGGGGGGAGCUACCUGGCCAGACGACUCGCCCGA [c1qrd17-43c]
GGGAGGACGAUGCGGAGACACUAAACAAAUUGGCGACCUGACCGUCAGACGACUCGCCCGA [C1Q-A7'C]
GGGAGGACGAUGCGGAGAGGCUCAGACGACUCGCCCGACCACGGAUGCGACCUCAGACGACUCGCCCGA [03.C1Q.137c]
GGGAGGACGAUGCGGAGAUGGAUGGAAGUGCUAGUCUUCUGGGGUCAGACGACUCGCCC [14.C1Q156c]
GGGAGGACGAUGCGGAGAUGGAUGGAAGUGCUAGUCUUUCUGGGGUCAGACGACUCGCCCGA [C1B119c]
GGGAGGACGAUGCGGAGCAGUUGAAAGACGUGCGUUUCGUUUGGUCAGACGACUCGCCCGA [C1Q-A28'C]
